Laboratory results from patent US7438933B2, “Maternal multi-nutrient against diabetes-related birth defects” (The Board of Trustees of the University of Arkansas System, priority 2004, dated 2008).

Tested on: embryos of diabetic rats
Experiment: Dietary supplementation of pregnant STZ-diabetic and non-diabetic rats; neural tube defects in E12 embryos
Assay type: in vivo, rat
Settings: supplemented diet
Experimental: To induce diabetes, 8-week-old Sprague-Dawley female rats are injected with 65 mg/kg of streptozotocin via the tail vein. Blood glucose levels are monitored daily (by tail vein puncture using a lancet) using a Prestige Smart blood glucose meter (Home Diagnostics, Fort Lauderdale, Fla.). Once a level of hyperglycemia indicative of diabetes (>250 mg/dl) is achieved, a sustained-release insulin pellet (Linplant, Linshin, Canada) will be inserted subcutaneously.
When glucose levels are restored to normal (80-150 mg/dl) and are stable for at least three continuous days, matings can be set up with male rats of the same strain. Day zero of pregnancy is established by identifying spermatozoa in vaginal smears. At designated developmental stages, insulin pellets are withdrawn to generate hyperglycemia in the pregnant rats. A group of control rats will continuously receive insulin during the course of the experiment. Glucose levels and maternal weight are continuously monitored during the pregnancy. Since it has already been shown that there is no difference in embryonic development between streptozotocin/insulin-treated and non-streptozotocin-treated animals, the streptozotocin/insulin-treated groups are used as an equivalent of non-diabetic control. At the end of the experiment, rats are euthanized and embryos dissected out of the uterus for examination and analysis. At least four pregnant rats are included in each group, from which 40-60 embryos can be obtained for examination. For each type of study, at least three replicate experiments will be carried out.
To investigate the effects of maternal hyperglycemia on embryonic malformations, the investigators employed a rat model that induces diabetes by streptozotocin (STZ). Subcutaneously implanted insulin pellets maintained euglycemia at the time of mating. On day 4 of pregnancy, the insulin pellets were removed, and the developing embryos were exposed to hyperglycemia during organogenesis (days 9-12). To maintain a euglycemic control, insulin pellets were retained in the body during the entire experimental course. On day 12, both sets of rats were euthanized, embryos were dissected out of the uteri for examination, and each embryo's yolk sac was collected for biochemical and molecular analyses.
After removal from the dams, embryos were examined under a dissecting microscope and assessed for morphological malformations in a number of categories to determine the effects of maternal hyperglycemia. […]
At E12, embryos were dissected out of uteri and evaluated for neural tube defects (NTDs), which were used as a measure of malformation rates.

Row | SMILES | Glucose level (mg/dl) ± SD (diabetic rats) [mg/dL] | Glucose level (mg/dl) ± SD (non-diabetic rats) [mg/dL]
1 | CCCCC/C=C\C/C=C\C/C=C\C/C=C\CCCC(=O)O [arachidonic acid] | 351 ± 48 | 144 ± 24
2 | Cc1c(C)c2c(c(C)c1O)CC[C@@](C)(CCC[C@H](C)CCC[C@H](C)CCCC(C)C)O2 [vitamin E, α-tocopherol] | 348 ± 59 | 89.2 ± 14
